Measured values from patent US20250268967A1, “NUTRACEUTICAL COMPOUNDS USEFUL IN THE TREATMENT OF CORONAVIRUS DISEASE” (priority 2020, published 2025).
At least one compound was matched to its structure with a doubt left.

Key:
SARS-CoV-2 [1] = settings: average calculated from three publications; read-out: average effective concentration (EC50); cited from earlier work
SARS-CoV-2 [2] = assay: In vitro antiviral immunostaining assay in Vero E6 cells; settings: Vero E 6 cells, in words

CCC(CC)COC(=O)[C@H](C)N[P@](=O)(OC[C@H]1O[C@@](C#N)(c2ccc3c(N)ncnn23)[C@H](O)[C@@H]1O)Oc1ccccc1 [Remdesivir]
EC50 (SARS-CoV-2 [1]): ~3.45 µM
EC100 (SARS-CoV-2 [2]): Achieved
